Data from patent publication US7517960B2, “Rat KCNQ5 voltage-gated potassium channel” (Wyeth, priority 2006, dated 2009).
At least one compound was matched to its structure with a doubt left.

Key:
[1] = test system: rat KCNQ5; assay: Two-electrode voltage clamp recording of rat KCNQ5 expressed in Xenopus laevis oocytes; format: cell-based; conditions: homomeric rKCNQ5, cRNA-injected Xenopus laevis oocytes, recorded 48-72 hours after injection, FIG. 1B
Procedure: The electrodes were filled with 3 M KCl solution with resistances ranging from 0.5 to 1.5 MΩ.
For Examples 4 and 5, the cRNAs of rKONQ5 were injected directly into Xenopus laevis oocytes and the electrophysiological recordings were performed 48-72 hours after RNA injection using two-electrode voltage clamp recording (see Jow F and Wang K-W, Mol. Brain Res. 80:269-78 (2000) for methods). The electrodes were filled with 3 M KCI solution with resistances ranging from 0.5 to 1.5 MΩ. The bath solution pf pH 7.4 was a “ND96” containing the following (in mM): NaCI, 96; KCl, 2; CaCl21.8; MgCl2 1; HEPES, 10 (see FIG. 1A).

[2] = test system: rat KCNQ5/KCNQ3 heteromeric channels; assay: Two-electrode voltage clamp recording of rKCNQ5 co-expressed with KCNQ3 in Xenopus laevis oocytes; format: cell-based; conditions: FIG. 2D
From the text: There is a significant increase in the current amplitude of the rat KCNQ5/KCNQ3 heteromeric channels compared with that of the rKCNQ5 or rat KCNQ3 homomeric channels. The homomeric channels here refer to those with only one type of channel subunits expressed in Xenopus laevis oocytes. In this case, it refers to either rKCNQ5 alone (FIG. 2A) or rat KCNQ3 alone (FIG. 2B). Heteromeric channels means that the functional channels are composed of subunits of both rKCNQ5 and rat KCNQ3 (FIG. 2C). It is believed that those functional channels are composed of 4 such subunits. Therefore, the functional channels are “tetramers”. If the 4 subunits are the same type (e.g. 4 rKCNQ5 subunits, or 4 rat KCNQ3 subunits), there are known as “homotetramers”. If the 4 subunits in these functional channels are different (e.g., 2 rKCNQ5+2 rat KCNQ3, or 3 rat KCNQ5+1 rat KCNQ3, etc.), they are known as “heterotetramers”.
For Examples 4 and 5, the cRNAs of rKONQ5 were injected directly into Xenopus laevis oocytes and the electrophysiological recordings were performed 48-72 hours after RNA injection using two-electrode voltage clamp recording (see Jow F and Wang K-W, Mol. Brain Res. 80:269-78 (2000) for methods). The electrodes were filled with 3 M KCI solution with resistances ranging from 0.5 to 1.5 MΩ. […]

CCOC(=O)Nc1ccc(NCc2ccc(F)cc2)cc1N [retigabine]
KCNQ5 channel current amplitude [1]: increased the channel current amplitude
current amplitudes of heterotetramer channels [2]: increased
